Earlier results as cited in patent publication US20120277693A1, “METHOD AND APPARATUS FOR IMPROVING THE APPEARANCE OF NAILS AFFECTED BY ONYCHOMYCOSIS THROUGH THE TOPICAL APPLICATION OF AN AQUEOUS SOLUTION CONTAINING BORIC ACID AND CAMPHOR OR OTHER TERPENES” (priority 2009, published 2012).
Some of these results come from one statement about several compounds together. At least one compound was matched to its structure with a doubt left. Some compounds share one range, which may span the group rather than tell each member.

Test system: nail fungus
Details: typical twelve week course of treatment, oral
In the case of `OC(Cn1cncn1)(Cn1cncn1)c1ccc(F)cc1F` [fluconazole], the “chance of curing the condition” value is listed as 50-70%. For `CCC(C)n1ncn(-c2ccc(N3CCN(c4ccc(OCC5COC(Cn6cncn6)(c6ccc(Cl)cc6Cl)O5)cc4)CC3)cc2)c1=O` (stereo not drawn) [itraconazole], the “chance of curing the condition” value is listed as 50-70%. For `CN(C/C=C/C#CC(C)(C)C)Cc1cccc2ccccc12` [terbinafine], the “chance of curing the condition” value is given as 50-70%.
